The source of these data is PMC8877285.

These are yes or no findings as the source states them, for the method shown. In cells and extracts the contact can be indirect. Some entries that bind do so weakly or less than the wild type.

The target in the test is T1, carbamoylphosphate synthetase (CPS1) (mouse (endogenous in mouse liver)) (UniProt Q8C196).
T1 sequence: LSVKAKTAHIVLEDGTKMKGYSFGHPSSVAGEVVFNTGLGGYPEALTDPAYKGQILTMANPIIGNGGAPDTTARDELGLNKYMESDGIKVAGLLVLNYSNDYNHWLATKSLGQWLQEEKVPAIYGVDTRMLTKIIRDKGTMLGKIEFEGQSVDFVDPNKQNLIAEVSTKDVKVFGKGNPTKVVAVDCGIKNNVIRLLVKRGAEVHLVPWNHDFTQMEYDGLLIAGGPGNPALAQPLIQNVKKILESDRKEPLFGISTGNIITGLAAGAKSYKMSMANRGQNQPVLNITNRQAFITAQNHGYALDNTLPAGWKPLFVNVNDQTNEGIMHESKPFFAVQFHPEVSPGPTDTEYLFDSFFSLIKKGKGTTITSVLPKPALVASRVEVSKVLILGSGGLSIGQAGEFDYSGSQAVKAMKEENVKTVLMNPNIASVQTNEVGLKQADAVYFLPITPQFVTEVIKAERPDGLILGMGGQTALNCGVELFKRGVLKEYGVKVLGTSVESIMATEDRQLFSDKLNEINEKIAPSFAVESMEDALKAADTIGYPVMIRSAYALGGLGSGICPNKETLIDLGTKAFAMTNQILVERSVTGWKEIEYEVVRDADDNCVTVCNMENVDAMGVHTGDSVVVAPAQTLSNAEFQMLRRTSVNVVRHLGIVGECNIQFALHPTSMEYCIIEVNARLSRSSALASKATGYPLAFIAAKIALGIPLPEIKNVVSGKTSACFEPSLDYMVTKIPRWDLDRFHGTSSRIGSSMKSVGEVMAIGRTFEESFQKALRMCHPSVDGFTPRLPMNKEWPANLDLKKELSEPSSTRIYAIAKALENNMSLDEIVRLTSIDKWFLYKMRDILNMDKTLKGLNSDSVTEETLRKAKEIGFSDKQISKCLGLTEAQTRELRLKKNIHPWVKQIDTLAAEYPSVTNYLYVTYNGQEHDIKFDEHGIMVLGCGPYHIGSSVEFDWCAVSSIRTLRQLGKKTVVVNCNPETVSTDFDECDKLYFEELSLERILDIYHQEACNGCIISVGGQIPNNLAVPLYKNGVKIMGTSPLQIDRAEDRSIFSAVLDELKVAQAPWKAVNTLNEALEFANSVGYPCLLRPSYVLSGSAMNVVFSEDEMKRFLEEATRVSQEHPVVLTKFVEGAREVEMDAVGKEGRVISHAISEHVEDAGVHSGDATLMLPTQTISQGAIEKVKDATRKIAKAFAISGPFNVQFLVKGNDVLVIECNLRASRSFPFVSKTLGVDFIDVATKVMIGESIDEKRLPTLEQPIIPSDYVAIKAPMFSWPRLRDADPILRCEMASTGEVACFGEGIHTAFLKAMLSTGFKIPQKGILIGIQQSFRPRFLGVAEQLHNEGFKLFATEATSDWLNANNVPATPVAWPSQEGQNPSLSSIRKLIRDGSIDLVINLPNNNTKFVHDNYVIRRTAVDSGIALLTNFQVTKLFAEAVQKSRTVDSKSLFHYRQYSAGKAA
Put plainly: co-IP; reverse Co-IP with a CPS1 antibody from liver lysates of female WT and FMO3-/- mice; blot for FMO3; no-antibody control.

B1: flavin-containing monooxygenase 3 (FMO3) (protein, UniProt P97501 1-534)
chain: MKKKVAIIGAGVSGLAAIRSCLEEGLEPTCFERSDDVGGLWKFSDHIEEGRASIYQSVFTNSSKEMMCFPDFPYPDDFPNFMHHSKLQEYITSFAKEKNLLKYIQFETPVTSINKCPNFSTTGKWEVTTEKHGKKETAVFDATMICSGHHIFPHVPKDSFPGLNRFKGKCFHSRDYKEPGIWKGKRVLVIGLGNSGCDIAAELSHVAQKVTISSRSGSWVMSRVWDDGYPWDMVVLTRFQTFLKNNLPTAISDWWYTRQMNARFKHENYGLVPLNRTLRKEPVFNDELPARILCGMVTIKPNVKEFTETSAVFEDGTMFEAIDCVIFATGYGYAYPFLDDSIIKSRNNEVTLYKGVFPPQLEKPTMAVIGLVQSLGATIPITDLQARWAAQVIKGTCTLPSVNDMMDDIDEKMGEKFKWYGNSTTIQTDYIVYMDELASFIGAKPNLLWLFLKDPRLAVEVFFGPCSPYQFRLVGPGKWSGARNAILTQWDRSLKPMKTRVVSKVQKSCSHFYSRLLRLLAVPVLLIALFLVLI
Regarding B1, the binding entry is on record as “binds weakly”.
